# Experimental data taken from the supplement of paper PMC8728848.
# This is one part of the list.
# Experiments:
# Test in all cases: glycan array binding signal (z-score within array); higher = stronger binding
# Conditions in all cases: glycan notation: IUPAC condensed, linker removed
# [1] = molecular target: Fuc(a1-2)Gal6S(b1-3)GlcNAc6S
# How it was run: (§1)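 Glycan array binding is given as a within-array Z-score, which can be read as non-binding when negative. The arrays, 3228 of them, came from the Consortium for Functional Glycomics database and were retained only where the protein sequence was available. Z-scores were averaged across arrays of the same protein sequence at different concentrations or buffers and across linkers.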
# Fuc(a1-2)Gal6S(b1-4)Glc = molecular target: Fuc(a1-2)Gal6S(b1-4)Glc
# How it was run: as §1
# [2] = molecular target: Fuc(a1-2)Gal6S(b1-4)Glc6S
# How it was run: as §1
# Fuc(a1-2)[Gal(a1-3)]Gal = molecular target: Fuc(a1-2)[Gal(a1-3)]Gal
# How it was run: as §1
# [3] = molecular target: Fuc(a1-2)[Gal(a1-3)]Gal(b1-3)GalNAc
# How it was run: as §1
# [4] = molecular target: Fuc(a1-2)[Gal(a1-3)]Gal(b1-3)GalNAc(b1-3)Gal(a1-4)Gal(b1-4)Glc
# How it was run: as §1
# [5] = molecular target: Fuc(a1-2)[Gal(a1-3)]Gal(b1-3)GlcNAc
# How it was run: as §1
# [6] = molecular target: Fuc(a1-2)[Gal(a1-3)]Gal(b1-3)GlcNAc(b1-2)Man(a1-3)[Fuc(a1-2)[Gal(a1-3)]Gal(b1-3)GlcNAc(b1-2)Man(a1-6)]Man(b1-4)GlcNAc(b1-4)GlcNAc
# How it was run: as §1
# [7] = molecular target: Fuc(a1-2)[Gal(a1-3)]Gal(b1-3)GlcNAc(b1-2)Man(a1-3)[Fuc(a1-2)[Gal(a1-3)]Gal(b1-3)GlcNAc(b1-2)Man(a1-6)]Man(b1-4)GlcNAc(b1-4)[Fuc(a1-6)]GlcNAc
# How it was run: as §1
# [8] = molecular target: Fuc(a1-2)[Gal(a1-3)]Gal(b1-3)GlcNAc(b1-3)GalNAc
# How it was run: as §1
# [9] = molecular target: Fuc(a1-2)[Gal(a1-3)]Gal(b1-3)GlcNAc(b1-6)GalNAc
# How it was run: as §1
# [10] = molecular target: Fuc(a1-2)[Gal(a1-3)]Gal(b1-4)Glc
# How it was run: as §1
# [11] = molecular target: Fuc(a1-2)[Gal(a1-3)]Gal(b1-4)GlcNAc
# How it was run: as §1
# [12] = molecular target: Fuc(a1-2)[Gal(a1-3)]Gal(b1-4)GlcNAc(b1-2)Man
# How it was run: as §1
# [13] = molecular target: Fuc(a1-2)[Gal(a1-3)]Gal(b1-4)GlcNAc(b1-2)Man(a1-3)[Fuc(a1-2)[Gal(a1-3)]Gal(b1-4)GlcNAc(b1-2)Man(a1-6)]Man(b1-4)GlcNAc(b1-4)GlcNAc
# How it was run: as §1
# [14] = molecular target: Fuc(a1-2)[Gal(a1-3)]Gal(b1-4)GlcNAc(b1-2)Man(a1-3)[Fuc(a1-2)[Gal(a1-3)]Gal(b1-4)GlcNAc(b1-2)Man(a1-6)]Man(b1-4)GlcNAc(b1-4)[Fuc(a1-6)]GlcNAc
# How it was run: as §1
# [15] = molecular target: Fuc(a1-2)[Gal(a1-3)]Gal(b1-4)GlcNAc(b1-3)GalNAc
# How it was run: as §1
# [16] = molecular target: Fuc(a1-2)[Gal(a1-3)]Gal(b1-4)GlcNAc(b1-3)[Fuc(a1-2)[Gal(a1-3)]Gal(b1-4)GlcNAc(b1-6)]GalNAc
# How it was run: as §1
# [17] = molecular target: Fuc(a1-2)[Gal(a1-3)]Gal(b1-4)GlcNAc(b1-6)GalNAc
# How it was run: as §1
# [18] = molecular target: Fuc(a1-2)[Gal(a1-3)]Gal(b1-4)[Fuc(a1-3)]Glc
# How it was run: as §1
# [19] = molecular target: Fuc(a1-2)[Gal(a1-3)]Gal(b1-4)[Fuc(a1-3)]GlcNAc
# How it was run: as §1
# [20] = molecular target: Fuc(a1-2)[Gal(a1-3)]Gal(b1-4)[Fuc(a1-3)]GlcNAc(b1-3)GalNAc
# How it was run: as §1
# [21] = molecular target: Fuc(a1-2)[Gal(a1-4)]Gal(b1-4)GlcNAc
# How it was run: as §1
# [22] = molecular target: Fuc(a1-2)[GalNAc(a1-3)]Gal
# How it was run: as §1
# [23] = molecular target: Fuc(a1-2)[GalNAc(a1-3)]Gal(b1-3)GalNAc(a1-3)[Fuc(a1-2)]Gal(b1-4)GlcNAc
# How it was run: as §1
# [24] = molecular target: Fuc(a1-2)[GalNAc(a1-3)]Gal(b1-3)GalNAc(b1-3)Gal(a1-4)Gal(b1-4)Glc
# How it was run: as §1
# [25] = molecular target: Fuc(a1-2)[GalNAc(a1-3)]Gal(b1-3)GlcNAc
# How it was run: as §1
# [26] = molecular target: Fuc(a1-2)[GalNAc(a1-3)]Gal(b1-3)GlcNAc(b1-2)Man(a1-3)[Fuc(a1-2)[GalNAc(a1-3)]Gal(b1-3)GlcNAc(b1-2)Man(a1-6)]Man(b1-4)GlcNAc(b1-4)GlcNAc
# How it was run: as §1
# [27] = molecular target: Fuc(a1-2)[GalNAc(a1-3)]Gal(b1-3)GlcNAc(b1-2)Man(a1-3)[Fuc(a1-2)[GalNAc(a1-3)]Gal(b1-3)GlcNAc(b1-2)Man(a1-6)]Man(b1-4)GlcNAc(b1-4)[Fuc(a1-6)]GlcNAc
# How it was run: as §1
# [28] = molecular target: Fuc(a1-2)[GalNAc(a1-3)]Gal(b1-3)GlcNAc(b1-3)GalNAc
# How it was run: as §1
# [29] = molecular target: Fuc(a1-2)[GalNAc(a1-3)]Gal(b1-3)GlcNAc(b1-6)GalNAc
# How it was run: as §1
# [30] = molecular target: Fuc(a1-2)[GalNAc(a1-3)]Gal(b1-4)Glc
# How it was run: as §1
# [31] = molecular target: Fuc(a1-2)[GalNAc(a1-3)]Gal(b1-4)GlcNAc
# How it was run: as §1
# [32] = molecular target: Fuc(a1-2)[GalNAc(a1-3)]Gal(b1-4)GlcNAc(b1-2)Man
# How it was run: as §1
# [33] = molecular target: Fuc(a1-2)[GalNAc(a1-3)]Gal(b1-4)GlcNAc(b1-2)Man(a1-3)[Fuc(a1-2)[GalNAc(a1-3)]Gal(b1-4)GlcNAc(b1-2)Man(a1-6)]Man(b1-4)GlcNAc(b1-4)GlcNAc
# How it was run: as §1
# [34] = molecular target: Fuc(a1-2)[GalNAc(a1-3)]Gal(b1-4)GlcNAc(b1-2)Man(a1-3)[Fuc(a1-2)[GalNAc(a1-3)]Gal(b1-4)GlcNAc(b1-2)Man(a1-6)]Man(b1-4)GlcNAc(b1-4)[Fuc(a1-6)]GlcNAc
# How it was run: as §1
# [35] = molecular target: Fuc(a1-2)[GalNAc(a1-3)]Gal(b1-4)GlcNAc(b1-3)Gal(b1-4)GlcNAc
# How it was run: as §1
# [36] = molecular target: Fuc(a1-2)[GalNAc(a1-3)]Gal(b1-4)GlcNAc(b1-3)Gal(b1-4)GlcNAc(b1-3)Gal(b1-4)GlcNAc
# How it was run: as §1
# [37] = molecular target: Fuc(a1-2)[GalNAc(a1-3)]Gal(b1-4)GlcNAc(b1-3)GalNAc
# How it was run: as §1
# [38] = molecular target: Fuc(a1-2)[GalNAc(a1-3)]Gal(b1-4)GlcNAc(b1-3)[Fuc(a1-2)[GalNAc(a1-3)]Gal(b1-4)GlcNAc(b1-6)]GalNAc
# How it was run: as §1
# [39] = molecular target: Fuc(a1-2)[GalNAc(a1-3)]Gal(b1-4)GlcNAc(b1-6)GalNAc
# How it was run: as §1
# [40] = molecular target: Fuc(a1-2)[GalNAc(a1-3)]Gal(b1-4)[Fuc(a1-3)]GlcNAc
# How it was run: as §1
# [41] = molecular target: Fuc(a1-2)[GalNAc(a1-3)]Gal(b1-4)[Fuc(a1-3)]GlcNAc(b1-3)GalNAc
# How it was run: as §1
# [42] = molecular target: Fuc(a1-2)[GalNAc(a1-4)]Gal(b1-4)GlcNAc
# How it was run: as §1
# [43] = molecular target: Fuc(a1-2)[GalNAc(b1-3)]Gal
# How it was run: as §1
binder,measurement,setting,value
Nc3LysM-2 (protein) AHVLQARQSVSCDFATAANTGDTCASFAAAWGITEAAFAKLNPGVSCPGNLIAGSEYCVIGTVSTGAPTTTKAATTSTTPPTTTTTTKATTLSTSTTSVSPTGPSPQMPSITSTCNKFYQVQSGDGCWSIEQAQGVSASDFMAWNKAVDAQCDNLWLGYYVCVGVKGGSSPPPTTTTKPASSSAPTPQMPNTVSNCKKFHKVVSGDGCWAIEQAAGISASDFAKWNPYVDAACDNLWLGYYVCIGV,glycan array binding signal (z-score),[1],0.679
same,glycan array binding signal (z-score),Fuc(a1-2)Gal6S(b1-4)Glc,-0.379
same,glycan array binding signal (z-score),[2],0.948
same,glycan array binding signal (z-score),Fuc(a1-2)[Gal(a1-3)]Gal,-0.694
same,glycan array binding signal (z-score),[3],0.293
same,glycan array binding signal (z-score),[4],-0.339
same,glycan array binding signal (z-score),[5],-0.397
same,glycan array binding signal (z-score),[6],0.135
same,glycan array binding signal (z-score),[7],-0.813
same,glycan array binding signal (z-score),[8],-0.745
same,glycan array binding signal (z-score),[9],-0.813
same,glycan array binding signal (z-score),[10],0.96
same,glycan array binding signal (z-score),[11],1.22
same,glycan array binding signal (z-score),[12],0.033
same,glycan array binding signal (z-score),[13],2.78
same,glycan array binding signal (z-score),[14],-0.64
same,glycan array binding signal (z-score),[15],-1.24
same,glycan array binding signal (z-score),[16],-0.659
same,glycan array binding signal (z-score),[17],-0.505
same,glycan array binding signal (z-score),[18],-1.4
same,glycan array binding signal (z-score),[19],0.099
same,glycan array binding signal (z-score),[20],-0.725
same,glycan array binding signal (z-score),[21],0.067
same,glycan array binding signal (z-score),[22],-0.518
same,glycan array binding signal (z-score),[23],0.497
same,glycan array binding signal (z-score),[24],0.509
same,glycan array binding signal (z-score),[25],-0.081
same,glycan array binding signal (z-score),[26],0.427
same,glycan array binding signal (z-score),[27],0.699
same,glycan array binding signal (z-score),[28],0.467
same,glycan array binding signal (z-score),[29],-1.06
same,glycan array binding signal (z-score),[30],1.85
same,glycan array binding signal (z-score),[31],0.41
same,glycan array binding signal (z-score),[32],-1.26
same,glycan array binding signal (z-score),[33],0.12
same,glycan array binding signal (z-score),[34],1.46
same,glycan array binding signal (z-score),[35],-1.43
same,glycan array binding signal (z-score),[36],1.08
same,glycan array binding signal (z-score),[37],0.544
same,glycan array binding signal (z-score),[38],-0.869
same,glycan array binding signal (z-score),[39],-1.2
same,glycan array binding signal (z-score),[40],-0.802
same,glycan array binding signal (z-score),[41],0.942
same,glycan array binding signal (z-score),[42],-0.013
same,glycan array binding signal (z-score),[43],-0.782

# A different layout for some results above:
binder	measurement	setting	value
Nc3LysM-2 (protein) AHVLQARQSVSCDFATAANTGDTCASFAAAWGITEAAFAKLNPGVSCPGNLIAGSEYCVIGTVSTGAPTTTKAATTSTTPPTTTTTTKATTLSTSTTSVSPTGPSPQMPSITSTCNKFYQVQSGDGCWSIEQAQGVSASDFMAWNKAVDAQCDNLWLGYYVCVGVKGGSSPPPTTTTKPASSSAPTPQMPNTVSNCKKFHKVVSGDGCWAIEQAAGISASDFAKWNPYVDAACDNLWLGYYVCIGV	glycan array binding signal (z-score)	[17]	-0.505
same	glycan array binding signal (z-score)	[18]	-1.4
same	glycan array binding signal (z-score)	[19]	0.099
same	glycan array binding signal (z-score)	[20]	-0.725
same	glycan array binding signal (z-score)	[21]	0.067
same	glycan array binding signal (z-score)	[22]	-0.518
same	glycan array binding signal (z-score)	[23]	0.497
same	glycan array binding signal (z-score)	[24]	0.509
same	glycan array binding signal (z-score)	[25]	-0.081
same	glycan array binding signal (z-score)	[26]	0.427
same	glycan array binding signal (z-score)	[27]	0.699
same	glycan array binding signal (z-score)	[28]	0.467
same	glycan array binding signal (z-score)	[29]	-1.06
same	glycan array binding signal (z-score)	[30]	1.85
